This is one part of the list. The main result of the screen is listed elsewhere. These columns were measured beside it and carry no call. Compounds called inactive in the main read-out are mostly missing here. The note in brackets gives the kind of curve behind each potency; many fits are weak.
Assay: qHTS Assay for Modulators of Lamin A Splicing
Conditions: HeLa LMNA splicing GFP/RFP minigene ratio, 48 h
How it was run: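 S3 HeLa stable clones carrying a lamin A-EGFP splicing minigene plus DsRed2 were seeded at 600 cells/well in Opti-MEM with 2% FBS, pin-dosed and incubated 48 h at 37°C. Acumen cytometry (488 nm) gave the GFP/RFP total-intensity ratio.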

[1] = measured here: GFP splicing reporter channel
[2] = measured here: RFP viability control channel

Structure (SMILES) | AC50 [1] | AC50 [2]
COc1c2c(nc3ccccc13)O[C@H]([C@@](C)(O)CO)C2 | 0.0708 µM [falling, full curve, poor fit] | 0.0562 µM [falling, full curve, poor fit]
CC1CN(S(=O)(=O)c2cccc(-c3cn4ccccc4n3)c2)CC(C)O1 (configuration not stated) | – | 17.8 µM [rising, single point]
CCCCC(=O)Nc1ccc(C(=O)NNC(=S)NC(=O)c2cccs2)cc1 | – | 22.4 µM [rising, partial curve, poor fit]
CCOC(=O)Cn1c(CN2CCc3ccccc3C2)nc2c1c(=O)n(C)c(=O)n2C | 5.62 µM [falling, single point] | 3.98 µM [falling, single point]
COc1ccc(OC)c(CNC(=O)CCn2c(=O)c3cccn3c3ccc(F)cc32)c1 | 12.6 µM [falling, partial curve] | 12.6 µM [falling, partial curve, poor fit]
COc1ccc(CCNC(=S)Nc2ccc(C)cc2C)cc1 | – | 35.5 µM [rising, single point]
Cn1nc(CC(=O)NC2CCCCC2)c2ccccc2c1=O | 12.6 µM [rising, partial curve] | 14.1 µM [rising, partial curve]
COc1cc(/C=N/NC(=S)NCc2ccco2)cc(OC)c1OC | – | 0.00501 µM [rising, full curve, poor fit]
Cc1cc2cc(C=C(C#N)C#N)c(Cl)nc2cc1C | – | 11.2 µM [rising, partial curve, poor fit]
CCOc1ccc(CC(=O)N2CCN=C2SCc2ccc([N+](=O)[O-])cc2)cc1 | – | 11.2 µM [rising, partial curve]
COc1ccc([N+](=O)[O-])cc1NC(=S)NC(NC(=O)Cc1ccc(OC)c(OC)c1)C(Cl)(Cl)Cl (configuration not stated) | 12.6 µM [falling, partial curve] | 14.1 µM [falling, partial curve]
COc1ccc(C2C(C(=O)/C=C/c3ccco3)=C(O)C(=O)N2CCN2CCOCC2)cc1OC (configuration not stated) | 0.794 µM [rising, full curve] | 0.631 µM [rising, single point]
CN1c2ccccc2C(C)(C)C12CC(c1ccc(Cl)c(S(=O)(=O)N3CCCC3)c1)=NO2 (configuration not stated) | – | 1.78 µM [rising, partial curve]
Cc1ccc(S(=O)(=O)Nc2cc(=O)[nH]c(SCc3ccc(Cl)cc3)n2)cc1 | – | 17.8 µM [rising, single point]
COc1cc(NC(=O)Cn2ncc3c([nH]c4ccc(C)cc43)c2=O)cc(OC)c1OC | 0.00316 µM [falling, full curve, poor fit] | 0.00316 µM [falling, full curve]

Exported comma-delimited: 4 of the compounds above
Structure (SMILES),AC50 [1],AC50 [2]
Cc1cc2cc(C=C(C#N)C#N)c(Cl)nc2cc1C,–,"11.2 µM [rising, partial curve, poor fit]"
CCOc1ccc(CC(=O)N2CCN=C2SCc2ccc([N+](=O)[O-])cc2)cc1,–,"11.2 µM [rising, partial curve]"
COc1ccc([N+](=O)[O-])cc1NC(=S)NC(NC(=O)Cc1ccc(OC)c(OC)c1)C(Cl)(Cl)Cl (configuration not stated),"12.6 µM [falling, partial curve]","14.1 µM [falling, partial curve]"
COc1ccc(C2C(C(=O)/C=C/c3ccco3)=C(O)C(=O)N2CCN2CCOCC2)cc1OC (configuration not stated),"0.794 µM [rising, full curve]","0.631 µM [rising, single point]"

From PubChem BioAssay AID1487 (National Center for Advancing Translational Sciences (NCATS), 2009)
